# Laboratory results reported in patent US20260137758A1, “TREATMENT OF STEATOTIC LIVER DISEASE ASSOCIATED WITH METABOLIC DYSFUNCTION” (priority 2024, published 2026).
# Chains of the proteins cited; added tags and fusions are not shown. Residues count along the entry.
# UniProt P43220, 24-463: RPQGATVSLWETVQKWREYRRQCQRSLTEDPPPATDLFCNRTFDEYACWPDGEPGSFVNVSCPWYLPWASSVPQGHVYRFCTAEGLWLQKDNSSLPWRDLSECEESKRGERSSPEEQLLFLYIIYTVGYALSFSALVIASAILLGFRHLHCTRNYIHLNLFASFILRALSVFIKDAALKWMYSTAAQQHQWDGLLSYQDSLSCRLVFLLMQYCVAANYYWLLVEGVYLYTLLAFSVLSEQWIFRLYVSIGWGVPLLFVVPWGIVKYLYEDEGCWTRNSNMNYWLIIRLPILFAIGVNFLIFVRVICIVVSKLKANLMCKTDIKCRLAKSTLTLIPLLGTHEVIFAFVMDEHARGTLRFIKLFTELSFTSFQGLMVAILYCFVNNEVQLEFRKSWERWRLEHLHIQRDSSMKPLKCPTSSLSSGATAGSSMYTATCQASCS
# At least one peptide structure holds a part that was inferred or is arguable (an end, a ring closure or a residue). At least one structure is not confirmed: it was looked up by name or label, or the drawing left a doubt. Starred links: 1 amine or outer side, 2 acyl side, 3 side chain; linkers in the order of their positions; H or OH if unused. Non-standard residues stand in square brackets, D forms with d. Residues, ends and D or L forms follow the SMILES beside them. Groups on a side chain read outwards from the residue. *: point of attachment. Isobutyryl(2-(3-CN-5-F-Ph)) = CC(C)(C(=O)*)c1cc(F)cc(C#N)c1; C20 diacid = O=C(O)CCCCCCCCCCCCCCCCCCC(=O)*; γGlu = O=C(O)[C@H](CCC(=O)[*:2])N[*:1]; AEEA = NCCOCCOCC(=O)O; Aib = CC(C)(N)C(=O)O; βAla = NCCC(=O)O
# What was measured:
# Format in all cases: cell-based
# human GIPR [1] = biological target: T1, human GIPR (Homo sapiens, UniProt P48546); assay: β-arrestin-2 recruitment (NanoBiT), HEK293, human GIPR; parameters: expressed in transfected cells; host or cells: HEK293 (stably or transiently transfected)
# T1 sequence (P48546 22-466): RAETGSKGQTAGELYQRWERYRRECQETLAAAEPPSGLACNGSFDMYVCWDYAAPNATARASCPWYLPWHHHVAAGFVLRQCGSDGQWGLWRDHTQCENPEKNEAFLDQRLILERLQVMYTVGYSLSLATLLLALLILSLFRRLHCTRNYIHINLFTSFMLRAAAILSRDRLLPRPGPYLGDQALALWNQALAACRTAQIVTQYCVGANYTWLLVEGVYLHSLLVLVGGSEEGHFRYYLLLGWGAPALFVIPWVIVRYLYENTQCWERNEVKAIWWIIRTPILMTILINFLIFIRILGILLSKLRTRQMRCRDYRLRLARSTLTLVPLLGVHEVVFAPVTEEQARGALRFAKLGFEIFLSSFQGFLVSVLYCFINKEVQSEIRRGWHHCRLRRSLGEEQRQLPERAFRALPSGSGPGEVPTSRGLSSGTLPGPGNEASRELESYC
# Protocol: β-arrestin recruitment was measured using Promega's NanoBiT technology and Nano-Glo® Live Cell Substrate in HEK293 cells. β-arrestin-2 recruitment was measured using Promega's NanoBiT technology and Nano-Glo® Live Cell Substrate (catalog number N2012), which uses the NanoLuc luciferase split into two subunits called LgBiT and SmBiT. HEK293 cells were either stably or transiently transfected with equal amounts of DNA plasmids expressing the fusion proteins human GLP-1R-LgBiT or GIPR-LgBiT and SmBiT-(human)-β-arrestin-2; similar methods were used for mouse GLP-1R, GIPR, and β-arrestin-2. […] The following day, the media was removed and replaced with 10 μL of a 1:100 dilution of Nano-Glo® Live Cell Substrate with NanoBiT buffer and OptiMem and equilibrated to room temperature for ten minutes covered. Background luminescence was measured before adding 100 nL of compound dilutions (made in a 1:1 ratio in DMSO). Compounds were transferred using an ECHO Acoustic Liquid Handler (Beckman Coulter) and luminescence was measured at 1.5-minute intervals for 15 minutes using an EnVision Multimode Plate Reader (PerkinElmer; Waltham, MA).
# Each dilution series was normalized to the adjacent high (100%) and low (0%) wells on the plate. […]
# and the Hillslope was constrained to 1. […] For NanoBiT assays, a single time point during the 30-minute activity measurements was selected for maximum luminescence response. […]
# human GLP-1R = human GLP-1R (Homo sapiens, UniProt P43220); assay: cAMP accumulation (HitHunter), CHO-K1 cells expressing SNAP-human GLP-1R; parameters: expressed in transfected cells
# Protocol: (§1) cAMP production was measured using the HitHunter® cAMP Assay for Small Molecules kit in mammalian cell lines overexpressing either GLP-1R or GIPR. […] A total of 10,000 cells in 5 μL of media were added to each well of a 384-well, low-volume assay plate. For mouse receptor cAMP assays, either U2OS cells stably expressing mouse GLP-1R (DiscoverX 95-0179C3) or CHO-K1 cells stably expressing mouse GIPR (DiscoverX 95-0154C2) were used. Twenty-four hours before the assay, 5000-10,000 cells per well were plated in 384-well, low-volume tissue culture-treated plates in Assay Complete Cell Plating reagent 2 (murine GIPR cells) or 5 (murine GLP-1R cells). […] Compounds were diluted 1:1 in DMSO and 5 nL was transferred to the tissue-culture plate wells using an ECHO Acoustic Liquid Handler (Beckman Coulter).
# (§2) Each dilution series was normalized to the adjacent high (100%) and low (0%) wells on the plate. Dose-response data were fitted to a curve using nonlinear regression analysis using the “log(agonist) vs response-variable slope” setting, where:
# (§3) Y=Bottom+(Top−Bottom)/(1+10^((Log EC50−X)*HillSlope))
# (§4) and the Hillslope was constrained to 1. Compound potency and efficacy were extracted from this regression analysis. […] For NanoBiT assays, a single time point during the 30-minute activity measurements was selected for maximum luminescence response. […]
# human GIPR [2] = biological target: T1, human GIPR; assay: cAMP accumulation (HitHunter), CHO-K1 cells expressing SNAP-human GIPR; parameters: expressed in transfected cells
# Protocol: as §1, §2, §3, §4
structure (smiles),measurement,setting,value
CC[C@H](C)[C@H](NC(=O)[C@H](CC(C)C)NC(=O)[C@H](Cc1c[nH]c2ccccc12)NC(=O)[C@H](CCC(N)=O)NC(=O)[C@@H](NC(=O)[C@H](Cc1ccccc1)NC(=O)[C@H](C)NC(=O)[C@H](CCCCNC(=O)COCCOCCNC(=O)COCCOCCNC(=O)CC[C@H](NC(=O)CCCCCCCCCCCCCCCCCCC(=O)O)C(=O)O)NC(=O)[C@H](CCC(N)=O)NC(=O)[C@H](C)NC(=O)[C@@H](NC(=O)[C@H](CCCCN)NC(=O)[C@H](CC(=O)O)NC(=O)[C@H](CC(C)C)NC(=O)C(C)(C)NC(=O)[C@@H](NC(=O)[C@H](CO)NC(=O)[C@H](Cc1ccc(O)cc1)NC(=O)[C@H](CC(=O)O)NC(=O)[C@H](CO)NC(=O)[C@@H](NC(=O)[C@H](Cc1ccccc1)NC(=O)[C@@H](NC(=O)CNC(=O)[C@H](CCC(=O)O)NC(=O)CCNC(=O)C(C)(C)c1cc(F)cc(C#N)c1)[C@@H](C)O)[C@@H](C)O)[C@@H](C)CC)[C@@H](C)CC)C(C)C)C(=O)N[C@@H](C)C(=O)NCC(=O)NCC(=O)N1CCC[C@H]1C(=O)N[C@@H](CO)C(=O)N[C@@H](CO)C(=O)NCC(=O)N[C@@H](C)C(=O)N1CCC[C@H]1C(=O)N1CCC[C@H]1C(=O)N1CCC[C@H]1C(=O)N[C@@H](CO)C(N)=O [CT-388] ({Isobutyryl(2-(3-CN-5-F-Ph))-βAla}-EGTFTSDYSI[Aib]LDKIAQK([AEEA-AEEA-γGlu-C20 diacid])AFVQWLIAGGPSSGAPPPS-NH2),EC50,human GIPR [1],11 nM
same,EC50,human GLP-1R,0.087 nM
same,EC50,human GIPR [2],2.47 nM
